Laboratory results from PMC12339002.
No constants are given. Whether binding was seen depends on the method and setting. In cells and extracts the contact can be indirect. Here binding means that the protein was enriched with, or labelled near, the bait; the list need not be complete. Tags and fused reporters may be left off the sequences shown.

T1: MML-1::3xFLAG (MML-1 endogenously tagged with 3xFLAG) (C. elegans (endogenous in whole worms)) (UniProt P41846)
T1 sequence: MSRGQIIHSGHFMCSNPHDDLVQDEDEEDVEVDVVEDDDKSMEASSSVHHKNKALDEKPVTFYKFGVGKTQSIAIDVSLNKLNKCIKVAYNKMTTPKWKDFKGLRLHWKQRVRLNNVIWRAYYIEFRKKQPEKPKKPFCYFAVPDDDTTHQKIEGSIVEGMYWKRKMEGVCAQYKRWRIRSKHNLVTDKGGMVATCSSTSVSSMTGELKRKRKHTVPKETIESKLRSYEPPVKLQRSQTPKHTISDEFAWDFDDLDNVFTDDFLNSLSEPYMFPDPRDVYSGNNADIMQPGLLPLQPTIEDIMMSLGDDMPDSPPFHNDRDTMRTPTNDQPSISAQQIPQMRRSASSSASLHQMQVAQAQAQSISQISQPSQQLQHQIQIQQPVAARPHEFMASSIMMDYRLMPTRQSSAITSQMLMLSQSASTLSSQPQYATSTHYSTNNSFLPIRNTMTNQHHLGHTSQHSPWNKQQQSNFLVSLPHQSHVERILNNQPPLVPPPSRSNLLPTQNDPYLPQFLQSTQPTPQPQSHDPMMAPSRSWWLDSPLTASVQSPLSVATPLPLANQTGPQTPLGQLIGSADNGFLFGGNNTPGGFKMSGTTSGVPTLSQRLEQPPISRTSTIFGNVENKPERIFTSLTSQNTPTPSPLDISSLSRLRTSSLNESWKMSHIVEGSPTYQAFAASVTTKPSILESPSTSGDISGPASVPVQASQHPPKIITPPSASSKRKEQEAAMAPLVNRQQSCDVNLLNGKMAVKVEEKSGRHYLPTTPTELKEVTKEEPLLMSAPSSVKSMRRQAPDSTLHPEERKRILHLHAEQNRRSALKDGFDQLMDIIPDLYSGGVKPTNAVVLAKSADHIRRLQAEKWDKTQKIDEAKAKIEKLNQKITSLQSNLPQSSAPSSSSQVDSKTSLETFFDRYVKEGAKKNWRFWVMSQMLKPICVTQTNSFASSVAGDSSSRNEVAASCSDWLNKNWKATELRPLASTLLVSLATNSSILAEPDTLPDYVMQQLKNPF


What follows are binders tested against T1, MML-1::3xFLAG (MML-1 endogenously tagged with 3xFLAG) (C. elegans (endogenous in whole worms)) (assay: affinity purification with mass spectrometry; anti-FLAG M2 magnetic beads with 7 mg whole-worm lysate (mixed population) of MML-1::3xFLAG worms, overnight at 4°C; washes with 300 mM NaCl; on-bead trypsin, LC-MS/MS, label-free quantification against non-transgenic wild-type control; three biological replicates).

binding | Binder
binds | PLIN-1 (protein, UniProt A8WHP8 1-418) MTDVEQPVSVEDQQAQAQSYYDQVLGNAYVQTAINAYTKTKEFHPLLNSTLNSAEEKVSTVGNYAAQKAYDGYNSYYVKPKNTAYEAVSYGTERAKTAVESGKQAAIVGGTFGIGAAVVLTQFSLALSAGGAALVLEQVDSAKKLGSSAISTIKEAELAVEHRIFSALHQAQRIAMVPVEKITENTNSLLDILDGAVQKGLNIEVPPSVNLTIGQRVKNLASLIVQGVSNKLFKAHDHVIDPINERARNYLEQLSQSFVLLDIVREKKTWVIEKSNELSTSVFDFKKTLEEEAQKYKVAPEEMLMKHIQSTSEQLSTQLQSLREKGQNVFGDGTKIDSTIDYLENLKKNFTDAEDVYKVRDEVLNEGRQRIAELSTWTTSLLIISAEWQFEPEDLLIEELYFDAPPPVRTRNLYRNRA
binds | MXL-2 (protein, UniProt Q9TZ70 1-205) MSRSRSAAASSSQKPDDMDLMSPDGSASSPSAPNTPATNSGGFSSDRKKATHLRCERQRREAINSGYSDLKDLIPQTTTSLGCKTTNAAILFRACDFMSQLKTDISDADKQLAQLNAQAAALEMIASEYEQMASSVPDAGQSTIQVKMLQLLLDDCFTSFSSQVDFTTYATITRTLLSWVESLAPNAEPFKSTAGKMVTMPFTSP
binds | MPC-1 (protein, UniProt Q21828 1-137) MSRVISKVTTYFKQHSTAEWKHYFLSTHFWGPVANWGLPLAALGDLKKNPDMISGPMTSALLIYSSVFMRFAWHVQPRNLLLFACHFANFSAQGAQLGRFVNHNYLHYVEDPVHHKLMMKKEVLEHEHDAEVISKAH
